We go through seven molecules from paper doi:10.1101/2025.09.01.673592.

Chains of the proteins cited; added tags and fusions are not shown.
UniProt Q9Z2U0: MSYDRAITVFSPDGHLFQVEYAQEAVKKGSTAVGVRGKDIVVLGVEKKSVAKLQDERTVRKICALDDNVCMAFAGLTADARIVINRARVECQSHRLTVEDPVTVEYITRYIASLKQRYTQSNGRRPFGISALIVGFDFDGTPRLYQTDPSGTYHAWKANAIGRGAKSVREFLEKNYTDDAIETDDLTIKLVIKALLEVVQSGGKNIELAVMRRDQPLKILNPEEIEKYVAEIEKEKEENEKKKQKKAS
UniProt Q9CWH6: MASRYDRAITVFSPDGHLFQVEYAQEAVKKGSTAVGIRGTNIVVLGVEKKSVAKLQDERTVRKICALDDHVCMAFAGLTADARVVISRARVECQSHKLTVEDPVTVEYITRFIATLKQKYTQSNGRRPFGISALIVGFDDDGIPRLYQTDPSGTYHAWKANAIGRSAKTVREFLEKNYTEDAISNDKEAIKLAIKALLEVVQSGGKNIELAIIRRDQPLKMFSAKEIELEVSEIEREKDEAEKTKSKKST
UniProt Q8VDM4: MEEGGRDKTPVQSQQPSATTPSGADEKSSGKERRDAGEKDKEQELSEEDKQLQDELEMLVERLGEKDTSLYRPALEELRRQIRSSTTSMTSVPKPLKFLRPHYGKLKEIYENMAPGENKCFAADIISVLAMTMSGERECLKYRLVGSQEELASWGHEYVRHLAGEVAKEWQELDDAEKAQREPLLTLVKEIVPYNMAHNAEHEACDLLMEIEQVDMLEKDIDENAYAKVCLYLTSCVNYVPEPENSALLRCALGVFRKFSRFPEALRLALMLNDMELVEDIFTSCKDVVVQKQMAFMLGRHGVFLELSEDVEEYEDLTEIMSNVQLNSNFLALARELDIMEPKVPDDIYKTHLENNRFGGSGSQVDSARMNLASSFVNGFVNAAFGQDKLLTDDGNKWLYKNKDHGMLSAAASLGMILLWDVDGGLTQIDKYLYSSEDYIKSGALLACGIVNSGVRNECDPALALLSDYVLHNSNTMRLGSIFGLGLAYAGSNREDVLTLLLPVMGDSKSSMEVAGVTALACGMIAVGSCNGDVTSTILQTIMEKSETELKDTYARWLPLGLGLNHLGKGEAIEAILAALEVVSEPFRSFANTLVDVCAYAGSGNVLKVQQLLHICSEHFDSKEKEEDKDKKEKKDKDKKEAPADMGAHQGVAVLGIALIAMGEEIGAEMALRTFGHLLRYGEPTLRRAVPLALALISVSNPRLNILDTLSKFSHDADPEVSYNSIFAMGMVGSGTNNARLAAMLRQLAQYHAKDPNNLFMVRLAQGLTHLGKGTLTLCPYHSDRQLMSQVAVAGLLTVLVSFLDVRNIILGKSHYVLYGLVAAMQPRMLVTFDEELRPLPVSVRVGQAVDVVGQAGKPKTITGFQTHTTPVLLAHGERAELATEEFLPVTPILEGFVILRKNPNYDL
UniProt P25786: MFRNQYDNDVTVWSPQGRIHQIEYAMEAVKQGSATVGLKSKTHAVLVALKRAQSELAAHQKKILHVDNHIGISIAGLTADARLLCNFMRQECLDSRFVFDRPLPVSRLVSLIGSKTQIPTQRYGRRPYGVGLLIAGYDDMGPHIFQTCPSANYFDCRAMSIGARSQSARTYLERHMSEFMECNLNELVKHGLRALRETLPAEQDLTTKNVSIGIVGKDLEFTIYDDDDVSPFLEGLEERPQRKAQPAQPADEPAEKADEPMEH
UniProt Q9R1P4: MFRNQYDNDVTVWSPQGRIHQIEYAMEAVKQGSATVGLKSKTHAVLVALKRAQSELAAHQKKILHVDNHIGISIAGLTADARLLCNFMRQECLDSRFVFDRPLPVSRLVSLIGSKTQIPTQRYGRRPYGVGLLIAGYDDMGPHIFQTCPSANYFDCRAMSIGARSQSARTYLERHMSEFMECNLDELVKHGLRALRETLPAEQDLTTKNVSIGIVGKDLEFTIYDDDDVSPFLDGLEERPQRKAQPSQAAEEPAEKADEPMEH
UniProt P25787: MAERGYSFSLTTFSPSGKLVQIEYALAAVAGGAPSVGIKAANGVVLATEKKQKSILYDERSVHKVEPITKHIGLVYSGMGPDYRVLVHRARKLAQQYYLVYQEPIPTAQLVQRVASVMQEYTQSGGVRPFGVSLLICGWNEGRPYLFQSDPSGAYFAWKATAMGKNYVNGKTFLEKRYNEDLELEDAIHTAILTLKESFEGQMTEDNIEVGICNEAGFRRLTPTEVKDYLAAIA
UniProt Q13200: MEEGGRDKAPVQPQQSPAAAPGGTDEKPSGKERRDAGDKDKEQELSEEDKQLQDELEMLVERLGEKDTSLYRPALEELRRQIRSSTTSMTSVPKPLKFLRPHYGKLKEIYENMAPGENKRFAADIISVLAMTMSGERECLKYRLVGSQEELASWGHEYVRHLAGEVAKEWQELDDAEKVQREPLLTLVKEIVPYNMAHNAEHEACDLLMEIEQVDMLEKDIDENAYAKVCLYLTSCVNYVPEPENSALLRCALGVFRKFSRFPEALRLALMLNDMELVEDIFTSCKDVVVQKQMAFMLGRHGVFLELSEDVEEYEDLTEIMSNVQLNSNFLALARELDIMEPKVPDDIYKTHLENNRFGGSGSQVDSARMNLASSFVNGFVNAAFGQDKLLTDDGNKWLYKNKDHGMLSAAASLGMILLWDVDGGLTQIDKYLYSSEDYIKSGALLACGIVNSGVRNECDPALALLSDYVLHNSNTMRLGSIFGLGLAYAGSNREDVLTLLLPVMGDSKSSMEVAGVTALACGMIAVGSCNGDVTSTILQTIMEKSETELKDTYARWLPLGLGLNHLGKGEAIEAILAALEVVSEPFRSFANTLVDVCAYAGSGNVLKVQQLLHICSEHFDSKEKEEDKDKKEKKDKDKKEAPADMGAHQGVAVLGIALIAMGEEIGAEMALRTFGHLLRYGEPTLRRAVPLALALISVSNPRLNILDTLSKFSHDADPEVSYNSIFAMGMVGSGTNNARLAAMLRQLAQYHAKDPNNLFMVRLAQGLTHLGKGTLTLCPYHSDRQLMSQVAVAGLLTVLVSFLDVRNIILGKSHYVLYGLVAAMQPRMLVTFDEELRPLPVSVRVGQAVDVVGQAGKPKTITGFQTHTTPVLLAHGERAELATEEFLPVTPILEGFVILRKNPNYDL
UniProt P55036: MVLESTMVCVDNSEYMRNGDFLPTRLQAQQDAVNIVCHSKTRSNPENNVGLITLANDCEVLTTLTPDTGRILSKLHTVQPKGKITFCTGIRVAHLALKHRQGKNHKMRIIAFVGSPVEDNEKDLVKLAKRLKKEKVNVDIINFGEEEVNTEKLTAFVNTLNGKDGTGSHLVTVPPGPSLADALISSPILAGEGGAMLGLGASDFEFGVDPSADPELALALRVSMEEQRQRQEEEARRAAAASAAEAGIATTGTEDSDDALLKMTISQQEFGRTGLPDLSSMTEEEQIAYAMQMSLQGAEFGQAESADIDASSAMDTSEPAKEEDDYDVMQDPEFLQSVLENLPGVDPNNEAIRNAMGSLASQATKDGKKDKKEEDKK
UniProt O00487: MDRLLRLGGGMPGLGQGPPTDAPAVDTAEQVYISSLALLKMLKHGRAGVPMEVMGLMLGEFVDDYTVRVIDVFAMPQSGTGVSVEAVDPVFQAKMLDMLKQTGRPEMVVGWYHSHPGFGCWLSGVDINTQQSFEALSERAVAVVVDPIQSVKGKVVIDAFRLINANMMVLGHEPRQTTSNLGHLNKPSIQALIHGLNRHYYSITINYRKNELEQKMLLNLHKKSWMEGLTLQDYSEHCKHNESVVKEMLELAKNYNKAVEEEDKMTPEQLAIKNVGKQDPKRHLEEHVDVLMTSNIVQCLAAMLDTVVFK

No constants are given. Whether binding was seen depends on the method and setting. In cells and extracts the contact can be indirect. Some binding calls cover weakened binding; strength is not graded here. For part of these data: Where a sequence is shown, tags or fusion partners need not be part of it.

Assay [1] has as its target PSMA7 (UniProt Q9Z2U0). In words: co-IP.
In assay [2] the target is PSMA8 (UniProt Q9CWH6). In words: co-IP.
Assay [3] concerns the target PSMD2 (mouse (endogenous in embryos)) (UniProt Q8VDM4). In words: proximity ligation.
Assay [4] has as its target T1, MYC-Fetuin B (mouse) (UniProt Q9QXC1).
T1 sequence: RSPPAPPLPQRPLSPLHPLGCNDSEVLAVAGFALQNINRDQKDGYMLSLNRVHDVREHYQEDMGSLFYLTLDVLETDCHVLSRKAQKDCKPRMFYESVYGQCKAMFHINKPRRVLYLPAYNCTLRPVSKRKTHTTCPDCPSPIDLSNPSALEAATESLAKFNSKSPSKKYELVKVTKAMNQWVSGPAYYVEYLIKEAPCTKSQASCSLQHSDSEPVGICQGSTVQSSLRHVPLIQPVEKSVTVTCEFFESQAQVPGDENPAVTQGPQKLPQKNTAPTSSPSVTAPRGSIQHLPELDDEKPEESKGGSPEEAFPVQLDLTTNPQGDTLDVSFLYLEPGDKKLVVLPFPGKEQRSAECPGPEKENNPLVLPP
The assay can be described thus: co-IP.

Turning to PSMA1 (from UniProt P25786 1-263), the binding entry in assay [1] and in assay [2] was “binds” each time.

With PSMA1-eGFP (from UniProt Q9R1P4 1-263), the binding entry in assay [3] is on record as “binds”.

On to PSMA2 (from UniProt P25787 1-234), for which the binding result in assay [1] and in assay [2] was “binds” in each case.

For PSMD2 (from UniProt Q13200 1-908), the binding entry in assay [1] and in assay [2] was “binds” in each case.

For PSMD4 (from UniProt P55036 1-377), the binding result in assay [1] and in assay [2] was “binds” in each case.

On to PSMD14 (from UniProt O00487 1-310), for which the binding entry in assay [1] and in assay [2] was “binds” throughout.

B1: MARCH3-FLAG (enzyme, UniProt Q8BRX9 1-218)
chain: MTTSRCSHLPEVLPDCTSSAAPVVKTVEDCGSLVNGQPQYVMQVSAKDGQLLSTVVRTLATQSPFNDRPMCRICHEGSSQEDLLSPCECTGTLGTIHRSCLEHWLSSSNTSYCELCHFRFAVERKPRPLVEWLRNPGPQHEKRTLFGDMVCFLFITPLATISGWLCLRGAVDHLHFSSRLEAVGLIALTVALFTIYLFWTLRRYGHQSKPFWNQSSRS
With B1, the binding entry in assay [4] is “binds”.
